This note sets out measurements from publication PMC12428246.

Amino acid sequences for entries named in this document (tags omitted).
UniProt P98175: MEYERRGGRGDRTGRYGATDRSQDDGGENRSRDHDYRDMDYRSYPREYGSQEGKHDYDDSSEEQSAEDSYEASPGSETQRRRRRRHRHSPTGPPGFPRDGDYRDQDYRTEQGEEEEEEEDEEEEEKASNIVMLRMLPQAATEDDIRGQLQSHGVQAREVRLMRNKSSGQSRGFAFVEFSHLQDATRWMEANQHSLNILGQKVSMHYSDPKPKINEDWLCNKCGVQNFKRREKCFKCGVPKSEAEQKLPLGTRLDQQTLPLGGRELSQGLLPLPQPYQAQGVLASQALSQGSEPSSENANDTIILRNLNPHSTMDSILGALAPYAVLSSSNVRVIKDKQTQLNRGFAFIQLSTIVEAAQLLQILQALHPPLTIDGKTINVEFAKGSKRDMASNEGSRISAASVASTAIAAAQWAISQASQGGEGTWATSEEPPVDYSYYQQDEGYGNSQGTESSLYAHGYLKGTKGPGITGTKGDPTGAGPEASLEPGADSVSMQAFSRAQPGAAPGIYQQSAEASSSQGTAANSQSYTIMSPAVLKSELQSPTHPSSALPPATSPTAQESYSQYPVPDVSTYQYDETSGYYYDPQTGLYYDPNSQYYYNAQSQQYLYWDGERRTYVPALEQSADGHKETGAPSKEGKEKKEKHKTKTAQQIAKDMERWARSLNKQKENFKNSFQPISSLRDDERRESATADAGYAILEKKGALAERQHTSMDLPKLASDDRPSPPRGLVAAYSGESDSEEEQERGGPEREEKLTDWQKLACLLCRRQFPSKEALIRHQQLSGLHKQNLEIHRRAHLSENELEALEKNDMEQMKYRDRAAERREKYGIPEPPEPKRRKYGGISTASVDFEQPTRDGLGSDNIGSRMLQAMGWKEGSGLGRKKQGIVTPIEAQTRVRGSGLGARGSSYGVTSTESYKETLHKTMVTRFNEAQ

Results are given in words; binding and its absence hold for the method and conditions named. In cells and extracts the contact can be indirect. These calls come from enrichment with a bait or labelling near it, and not all partners need be listed. Where a sequence is shown, tags or fusion partners need not be part of it.

The target in this assay is T1, MP60, 60-amino-acid micropeptide encoded by LINC01138 (ENST00000614292), Flag knock-in (human (endogenous in 293T)).
T1 sequence: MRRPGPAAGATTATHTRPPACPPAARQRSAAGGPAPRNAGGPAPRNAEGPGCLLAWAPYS
As to the kind of experiment: affinity purification with mass spectrometry; anti-Flag antibody co-immunoprecipitation from lysates of 293T-Flag-KI cells, LC-MS/MS of the precipitated complex.

“RNA-binding motif protein 10 (RBM10) (from UniProt P98175 1-930)”: the binding entry is listed as “binds”.

B1: SRSF8 (protein, UniProt Q9BRL6 1-282)
chain: MSCGRPPPDVDGMITLKVDNLTYRTSPDSLRRVFEKYGRVGDVYIPREPHTKAPRGFAFVRFHDRRDAQDAEAAMDGAELDGRELRVQVARYGRRDLPRSRQGEPRGRSRGGGYGRRSRSYGRRSRSPRRRHRSRSRGPSCSRSRSRSRYRGSRYSRSPYSRSPYSRSRYSRSPYSRSRYRESRYGGSHYSSSGYSNSRYSRYHSSRSHSKSGSSTSSRSASTSKSSSARRSKSSSVSRSRSRSRSSSMTRSPPRVSKRKSKSRSRSKRPPKSPEEEGQMSS
Take B1: the binding result is given as “binds”.

B2: SRSF4 (protein, UniProt Q08170 1-494)
chain: MPRVYIGRLSYQARERDVERFFKGYGKILEVDLKNGYGFVEFDDLRDADDAVYELNGKDLCGERVIVEHARGPRRDGSYGSGRSGYGYRRSGRDKYGPPTRTEYRLIVENLSSRCSWQDLKDYMRQAGEVTYADAHKGRKNEGVIEFVSYSDMKRALEKLDGTEVNGRKIRLVEDKPGSRRRRSYSRSRSHSRSRSRSRHSRKSRSRSGSSKSSHSKSRSRSRSGSRSRSKSRSRSQSRSRSKKEKSRSPSKEKSRSRSHSAGKSRSKSKDQAEEKIQNNDNVGKPKSRSPSRHKSKSKSRSRSQERRVEEEKRGSVSRGRSQEKSLRQSRSRSRSKGGSRSRSRSRSKSKDKRKGRKRSREESRSRSRSRSKSERSRKRGSKRDSKAGSSKKKKKEDTDRSQSRSPSRSVSKEREHAKSESSQREGRGESENAGTNQETRSRSRSNSKSKPNLPSESRSRSKSASKTRSRSKSRSRSASRSPSRSRSRSHSRS
Turning to B2, the binding result is listed as “binds”.
